Laboratory results published in the supplement of paper PMC12889115.
Some of the results follow. Values are raw readings; no control value is given beside them.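 Primary screen: polymyxin B was added at a level permeabilizing Salmonella outer membranes while sparing inner membranes. DMSO wells, both with and without polymyxin B, established maximum growth. Plate-to-plate variation meant each plate was ranked on its own, and the lowest-OD600 compounds were selected as hits.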

System: Salmonella enterica serovar Typhimurium SL1344
Experiment: bacterial growth OD600 after 18 h with compound and polymyxin B; higher = more bacterial growth (less inhibition)
Details: 50 µM, Mueller-Hinton broth

## COc1ccccc1CN1C(=O)O[C@@H]2CN(C)C[C@@H]21
Polymyxin B 1 µg/mL
  bacterial growth OD600: 1.12

## O=C1CCC(C(=O)N2CCCCCCC2)CN1CCCc1ccccc1 (stereo not given)
Polymyxin B 1 µg/mL
  bacterial growth OD600: 0.899

## C=CCCC(=O)NC1CCCN(CCc2ccccc2)C1 (stereo not given)
Polymyxin B 0.75 µg/mL
  bacterial growth OD600: 0.809

## CCN(CCO)Cc1cn(-c2ccccc2C)nc1-c1ccc(OC)c(F)c1
Polymyxin B 1 µg/mL
  bacterial growth OD600: 0.951

## O=C(NCc1ccccc1)c1cccc(OC2CCN(Cc3ccc(CO)o3)CC2)c1
Polymyxin B 1 µg/mL
  bacterial growth OD600: 0.889

## CCN1CCC(NC(C)c2cnc(N3CCCCCCC3)nc2C)CC1 (stereo not given)
Polymyxin B 0.75 µg/mL
  bacterial growth OD600: 0.773

## COc1cc(NC(=O)CCC2CCCN(C(=O)c3ccnn3C)C2)cc(OC)c1 (stereo not given)
Polymyxin B 1 µg/mL
  bacterial growth OD600: 1.04

## COc1ccccc1C(=O)C1CCCN(C(=O)CN2C(=O)c3ccccc3C2=O)C1 (stereo not given)
Polymyxin B 1 µg/mL
  bacterial growth OD600: 0.171

## COc1cccc(N2C(=O)CN(Cc3cnn(C)c3)CC2C)c1 (stereo not given)
Polymyxin B 0.75 µg/mL
  bacterial growth OD600: 0.834

## Cc1cc(C)n(CCN(C)C(=O)CC2(c3ccccc3Cl)CC(=O)N(C3CCCC3)C2=O)n1 (stereo not given)
Polymyxin B 0.75 µg/mL
  bacterial growth OD600: 0.074

## Cc1c(C(=O)N(C)C(C)C)sc2ncnc(N3CCCCCCC3)c12
Polymyxin B 0.75 µg/mL
  bacterial growth OD600: 0.007

## Cc1ncoc1C(=O)N1CCCC(N2CCN(Cc3ccc4c(c3)OCO4)CC2)C1 (stereo not given)
Polymyxin B 1 µg/mL
  bacterial growth OD600: 0.921

## Cc1nc(N2CCC(C(=O)NC3C4CC5CC3CC(O)(C5)C4)CC2)nc2ccccc12 (stereo not given)
Polymyxin B 0.75 µg/mL
  bacterial growth OD600: 0.794

## COC(=O)c1ccccc1C(=O)N(C)CC1CCCN(CCc2ccc(Cl)cc2)C1 (stereo not given)
Polymyxin B 1 µg/mL
  bacterial growth OD600: 0.87

## Cc1nonc1CC(=O)NC1CC(=O)N(Cc2ccccc2C(F)(F)F)C1 (stereo not given)
Polymyxin B 1 µg/mL
  bacterial growth OD600: 1.01

## Cc1ccc(-c2n[nH]cc2CN2CCN(c3ccc(Cl)cn3)CC2)cc1C
Polymyxin B 1 µg/mL
  bacterial growth OD600: -0.001

## CCCOC1CCCN(Cc2cnc(S(=O)(=O)C(C)C)n2CCC(C)C)C1 (stereo not given)
Polymyxin B 1 µg/mL
  bacterial growth OD600: 0.554

## COCCN(Cc1ccccn1)C(Cc1ccccc1)C1CCN(Cc2cc3ccccc3[nH]2)CC1 (stereo not given)
Polymyxin B 0.75 µg/mL
  bacterial growth OD600: 0.548

## COc1cccc(OCc2cc(C(=O)NC3CCOC(C)(C)C3)n[nH]2)c1 (stereo not given)
Polymyxin B 1 µg/mL
  bacterial growth OD600: 0.89

## CCOC(=O)N1CCN(C(=O)C2CC23CCN(C(=O)c2cc(C4CC4)nc4ccccc24)CC3)CC1 (stereo not given)
Polymyxin B 0.75 µg/mL
  bacterial growth OD600: 0.815
